Reference: patent publication US20250136991A1, “METHOD OF MAKING BONE AND CARTILAGE” (priority 2022, published 2025)
At least one structure is not confirmed: it was looked up by name or label, or the drawing left a doubt.

Tested on: Mast4 gene
Test: mRNA expression of Mast4 and chondrocyte marker genes in differentiating C3H10T1/2 cells treated with Vactosertib (RT-PCR)
Type: cell-based, murine
Conditions: Vactosertib 0.5 mM for 3 and 6 days, RT-PCR (FIG. 21)

Cc1cccc(-c2[nH]c(CNc3ccccc3F)nc2-c2ccc3ncnn3c2)n1 [Vactosertib]
Mast4 gene expression during chondrogenic differentiation: prevented down-regulation of Mast4 gene
induction of chondrocyte marker genes: blocked induction of chondrocyte marker genes
